Measured values from the supplement of paper PMC8728848.
The list shows a part of the results.

Experiments:
Assay in all cases: glycan array binding signal (z-score within array); higher = stronger binding
Conditions in all cases: glycan notation: IUPAC condensed, linker removed
[1] = biological target: Gal(b1-4)GlcNAc(b1-3)Gal(b1-4)GlcNAc(b1-3)Gal(b1-4)GlcNAc(b1-2)Man(a1-3)[Gal(b1-4)GlcNAc(b1-3)Gal(b1-4)GlcNAc(b1-3)Gal(b1-4)GlcNAc(b1-2)Man(a1-6)]Man(b1-4)GlcNAc(b1-4)GlcNAc
Method in brief: (§1)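 From the Consortium for Functional Glycomics database, 3228 arrays were curated, keeping only those whose protein sequence was available. Binding is given as a within-array Z-score averaged across arrays sharing a protein sequence and across linkers. Negative Z-scores can be read as non-binding.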

[2] = biological target: Gal(b1-4)GlcNAc(b1-3)Gal(b1-4)GlcNAc(b1-3)Gal(b1-4)GlcNAc(b1-2)Man(a1-3)[Gal(b1-4)GlcNAc(b1-3)Gal(b1-4)GlcNAc(b1-3)Gal(b1-4)GlcNAc(b1-2)Man(a1-6)]Man(b1-4)GlcNAc(b1-4)[Fuc(a1-6)]GlcNAc
Method in brief: as §1

[3] = biological target: Gal(b1-4)GlcNAc(b1-3)Gal(b1-4)GlcNAc(b1-3)Gal(b1-4)GlcNAc(b1-2)[Gal(b1-4)GlcNAc(b1-3)Gal(b1-4)GlcNAc(b1-3)Gal(b1-4)GlcNAc(b1-6)]Man(a1-6)[Gal(b1-4)GlcNAc(b1-3)Gal(b1-4)GlcNAc(b1-3)Gal(b1-4)GlcNAc(b1-2)Man(a1-3)]Man(b1-4)GlcNAc(b1-4)[Fuc(a1-6)]GlcNAc
Method in brief: as §1

[4] = biological target: Gal(b1-4)GlcNAc(b1-3)Gal(b1-4)GlcNAc(b1-3)Gal(b1-4)GlcNAc(b1-3)Gal(b1-4)GlcNAc(b1-2)Man(a1-3)[Gal(b1-4)GlcNAc(b1-3)Gal(b1-4)GlcNAc(b1-3)Gal(b1-4)GlcNAc(b1-3)Gal(b1-4)GlcNAc(b1-2)Man(a1-6)]Man(b1-4)GlcNAc(b1-4)GlcNAc
Method in brief: as §1

[5] = biological target: Gal(b1-4)GlcNAc(b1-3)Gal(b1-4)GlcNAc(b1-3)Gal(b1-4)GlcNAc(b1-3)Gal(b1-4)GlcNAc(b1-2)Man(a1-3)[Gal(b1-4)GlcNAc(b1-3)Gal(b1-4)GlcNAc(b1-3)Gal(b1-4)GlcNAc(b1-3)Gal(b1-4)GlcNAc(b1-2)Man(a1-6)]Man(b1-4)GlcNAc(b1-4)[Fuc(a1-6)]GlcNAc
Method in brief: as §1

[6] = biological target: Gal(b1-4)GlcNAc(b1-3)Gal(b1-4)GlcNAc(b1-3)Gal(b1-4)GlcNAc(b1-3)Gal(b1-4)GlcNAc(b1-2)[Gal(b1-4)GlcNAc(b1-3)Gal(b1-4)GlcNAc(b1-3)Gal(b1-4)GlcNAc(b1-3)Gal(b1-4)GlcNAc(b1-6)]Man(a1-6)[Gal(b1-4)GlcNAc(b1-3)Gal(b1-4)GlcNAc(b1-3)Gal(b1-4)GlcNAc(b1-3)Gal(b1-4)GlcNAc(b1-2)Man(a1-3)]Man(b1-4)GlcNAc(b1-4)[Fuc(a1-6)]GlcNAc
Method in brief: as §1

[7] = biological target: Gal(b1-4)GlcNAc(b1-3)Gal(b1-4)GlcNAc(b1-3)Gal(b1-4)GlcNAc(b1-3)Gal(b1-4)GlcNAc(b1-3)Gal(b1-4)GlcNAc(b1-2)Man(a1-3)[Gal(b1-4)GlcNAc(b1-3)Gal(b1-4)GlcNAc(b1-3)Gal(b1-4)GlcNAc(b1-3)Gal(b1-4)GlcNAc(b1-3)Gal(b1-4)GlcNAc(b1-2)Man(a1-6)]Man(b1-4)GlcNAc(b1-4)GlcNAc
Method in brief: as §1

[8] = biological target: Gal(b1-4)GlcNAc(b1-3)Gal(b1-4)GlcNAc(b1-3)Gal(b1-4)GlcNAc(b1-3)Gal(b1-4)GlcNAc(b1-3)Gal(b1-4)GlcNAc(b1-2)Man(a1-3)[Gal(b1-4)GlcNAc(b1-3)Gal(b1-4)GlcNAc(b1-3)Gal(b1-4)GlcNAc(b1-3)Gal(b1-4)GlcNAc(b1-3)Gal(b1-4)GlcNAc(b1-2)Man(a1-6)]Man(b1-4)GlcNAc(b1-4)[Fuc(a1-6)]GlcNAc
Method in brief: as §1

[9] = biological target: Gal(b1-4)GlcNAc(b1-3)Gal(b1-4)GlcNAc(b1-3)Gal(b1-4)GlcNAc(b1-3)Gal(b1-4)GlcNAc(b1-3)Gal(b1-4)GlcNAc(b1-2)[Gal(b1-4)GlcNAc(b1-3)Gal(b1-4)GlcNAc(b1-3)Gal(b1-4)GlcNAc(b1-3)Gal(b1-4)GlcNAc(b1-3)Gal(b1-4)GlcNAc(b1-6)]Man(a1-6)[Gal(b1-4)GlcNAc(b1-3)Gal(b1-4)GlcNAc(b1-3)Gal(b1-4)GlcNAc(b1-3)Gal(b1-4)GlcNAc(b1-3)Gal(b1-4)GlcNAc(b1-2)Man(a1-3)]Man(b1-4)GlcNAc(b1-4)[Fuc(a1-6)]GlcNAc
Method in brief: as §1

[10] = biological target: Gal(b1-4)GlcNAc(b1-3)Gal(b1-4)GlcNAc(b1-3)Gal(b1-4)GlcNAc(b1-3)Gal(b1-4)GlcNAc(b1-3)Gal(b1-4)GlcNAc(b1-3)Gal(b1-4)GlcNAc(b1-2)Man(a1-3)[Gal(b1-4)GlcNAc(b1-3)Gal(b1-4)GlcNAc(b1-3)Gal(b1-4)GlcNAc(b1-3)Gal(b1-4)GlcNAc(b1-3)Gal(b1-4)GlcNAc(b1-3)Gal(b1-4)GlcNAc(b1-2)Man(a1-6)]Man(b1-4)GlcNAc(b1-4)GlcNAc
Method in brief: as §1

[11] = biological target: Gal(b1-4)GlcNAc(b1-3)Gal(b1-4)GlcNAc(b1-3)GalNAc
Method in brief: as §1

[12] = biological target: Gal(b1-4)GlcNAc(b1-3)Gal(b1-4)GlcNAc(b1-3)[Gal(b1-4)GlcNAc(b1-3)Gal(b1-4)GlcNAc(b1-6)]GalNAc
Method in brief: as §1

[13] = biological target: Gal(b1-4)GlcNAc(b1-3)Gal(b1-4)GlcNAc(b1-6)[Gal(b1-3)]GalNAc
Method in brief: as §1

[14] = biological target: Gal(b1-4)GlcNAc(b1-3)Gal(b1-4)[Fuc(a1-3)]GlcNAc(b1-3)Gal(b1-4)[Fuc(a1-3)]GlcNAc
Method in brief: as §1

[15] = biological target: Gal(b1-4)GlcNAc(b1-3)GalNAc
Method in brief: as §1

[16] = biological target: Gal(b1-4)GlcNAc(b1-3)[Fuc(a1-3)GlcNAc(b1-6)]Gal(b1-4)Glc
Method in brief: as §1

[17] = biological target: Gal(b1-4)GlcNAc(b1-3)[Gal(b1-4)GlcNAc(b1-6)]Gal(b1-4)GlcNAc
Method in brief: as §1

[18] = biological target: Gal(b1-4)GlcNAc(b1-3)[GlcNAc(b1-6)]Gal(b1-4)GlcNAc
Method in brief: as §1

[19] = biological target: Gal(b1-4)GlcNAc(b1-6)Gal(b1-4)GlcNAc
Method in brief: as §1

B1: LF82 (Escherichia coli) (protein)
chain: ADWGPCRTASGDPFIFVTSFTKNIQNPTDNVTGQTYPDFYQWALGDKYSGVCECPSPNPTEARPTLYKTESTLAAGHNSTYFKITNNLEVSTRVYIANVGNVQVPFINKSNSQPGRECDQPTFGWTTGSKGQLSLYIAKPFVGEQNIPQTIIVSVFGTKKENVYSSVPISQVLLSGKVTVTQGCELAAGTSLDIDFGEYQAHDFKGRTGQPPQNVQKIQKELTFNCTNISDGVHIYLSLEGTPNAAYPSAISLGNADVGAVIEDGKGNILKPNDSNSLLEMNPGSLYEYVKRKVTTTITAYPVSTTGKLPAAGDYSGVATMHVELDGGGGGGGGGGATTDLGAKGTLKFSLKISQGHHHHHH
- glycan array binding signal (z-score) [1]: 2.16
- glycan array binding signal (z-score) [2]: 0.043
- glycan array binding signal (z-score) [3]: 1.04
- glycan array binding signal (z-score) [4]: 1.07
- glycan array binding signal (z-score) [5]: -0.358
- glycan array binding signal (z-score) [6]: -1.08
- glycan array binding signal (z-score) [7]: -0.283
- glycan array binding signal (z-score) [8]: -1.17
- glycan array binding signal (z-score) [9]: 3.2
- glycan array binding signal (z-score) [10]: 0.959
- glycan array binding signal (z-score) [11]: -0.979
- glycan array binding signal (z-score) [12]: -0.293
- glycan array binding signal (z-score) [13]: -0.553
- glycan array binding signal (z-score) [14]: -0.067
- glycan array binding signal (z-score) [15]: -0.378
- glycan array binding signal (z-score) [16]: -0.449
- glycan array binding signal (z-score) [17]: -1.27
- glycan array binding signal (z-score) [18]: -0.31
- glycan array binding signal (z-score) [19]: -0.202
